The source of these data is article PMC4285326, “Structure and interactions of the Bacillus subtilis sporulation inhibitor of DNA replication, SirA, with domain I of DnaA” (Molecular Microbiology, 2014).

The assay addresses DnaA domain I (DnaA^DI), Bacillus subtilis, His-tag removed (B. subtilis) (UniProt P05648). As to the kind of experiment: SEC-MALS; Superdex 75 HR 10/30, 50 mM Tris pH 8.5, 200 mM KCl, 0.5 ml min^-1; DnaA^DI at 1.0, 2.5 and 5.0 mg ml^-1; SirA-DnaA^DI at 0.5, 1.0 and 2.5 mg ml^-1; both purified.

No constants are given. Whether binding was seen depends on the method and setting.

B1: DnaA domain I (DnaA^DI), Bacillus subtilis, His-tag removed (domain or fragment, B. subtilis)
chain: GPAMENILDLWNQALAQIEKKLSKPSFETWMKSTKAHSLQGDTLTITAPNEFARDWLESRYLHLIADTIYELTGEELSIKFVIPQ
notes: DnaA, B. subtilis, domain I (N-terminal domain); residues 1-81 defined in the crystal, C-terminal Gln82 disordered; Calculated molecular mass 9.7 kDa; also called N-terminal domain of DnaA; not shown: His6, N-terminal, cleaved
Consider B1, for which the binding entry was “no binding (tested: 1, 2.5 and 5 mg ml^-1)”.
